In publication PMC7819943, “Rice protein-binding microarrays: a tool to detect cis-acting elements near promoter regions in rice”:
Some of the results follow.

Amino acid sequences for entries named in this document (tags omitted).
UniProt Q0JBA9, entry or part of it: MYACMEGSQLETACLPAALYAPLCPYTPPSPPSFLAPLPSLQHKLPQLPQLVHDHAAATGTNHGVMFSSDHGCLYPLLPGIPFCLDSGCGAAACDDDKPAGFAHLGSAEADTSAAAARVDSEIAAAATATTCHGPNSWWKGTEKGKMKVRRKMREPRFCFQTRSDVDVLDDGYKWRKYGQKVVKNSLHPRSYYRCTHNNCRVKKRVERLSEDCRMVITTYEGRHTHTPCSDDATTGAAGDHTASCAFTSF

target: OsWRKY34 (Oryza sativa, UniProt Q0JBA9 1-250); assay: protein-binding microarray (RPBM); PBS, 2% BSA, 51.3 ng/ul salmon testes DNA, 50 uM zinc acetate, 200 nM TF, 25 C, 1 h; high values mean tight binding; conditions: protein: recombinant; tags: N-terminal polyhistidine and DsRed monomer fusion (pET32a); label: CyDye5-dUTP incorporated in the synthesized complementary strand; 3' TTTTT single-stranded linker to array surface; dsDNA, one strand shown
In short: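 In PBS with 2% BSA, salmon testes DNA and 50 µM zinc acetate, 200 nM protein was incubated on a custom Agilent array at 25 °C for 1 h and then washed off. The array had been made double-stranded by primer extension with Cy5-dUTP and blocked with 2% BSA. The proteins were transcription factors fused N-terminally to polyhistidine and DsRed, expressed in E. coli BL21-CodonPlus and purified on Ni–NTA. The binding signal is per-feature fluorescence intensity (arbitrary units) from an Axon 4000B scanner.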

Sequence | binding signal
ACGGTCCACCACCACCAGATATGCCGCCGCCCACCGCCCTCGGAGTCACCTAGTGCAG | 10500 fluorescence intensity (a.u.)
ACATTTTCCACCCTAACCTACAAAAATTAGTAGTTTTTTACGGAGTCACCTAGTGCAG | 8090 fluorescence intensity (a.u.)
GGTGTACTTTTTCCCATACCTATACATCCCGCGTTTTAGTCGGAGTCACCTAGTGCAG | 12300 fluorescence intensity (a.u.)
TTCTGCTACGACTTCATACGAGTCTACGAACCAGTCGCCGCGGAGTCACCTAGTGCAG | 8730 fluorescence intensity (a.u.)
GTTTCTTTCTTGTCGGCTACGTTTTAAATGACCAGTTAGTCGGAGTCACCTAGTGCAG | 8870 fluorescence intensity (a.u.)
ATTATATTTTGCTCCTGTAGGTTATATTATATATGTTGTCCGGAGTCACCTAGTGCAG | 9960 fluorescence intensity (a.u.)
CCGCCGCCGCCGCCGCAGCCACACCACCCGCGCCGCCCGTCGGAGTCACCTAGTGCAG | 8600 fluorescence intensity (a.u.)
TTTTGATTACTCATATAATCACCTTGTTATTTCTTTATATCGGAGTCACCTAGTGCAG | 9840 fluorescence intensity (a.u.)
ACAGAGCATGACACCTCAGCATTTTTTACCTTTCCTCTTCCGGAGTCACCTAGTGCAG | 9210 fluorescence intensity (a.u.)
ATCTTCCAAATCGTTTCATATTCGTGTTTACTGGAATAATCGGAGTCACCTAGTGCAG | 9200 fluorescence intensity (a.u.)
ACCTGACTAGCAAGCAACAATCATGTAACTTTTCACCTTTCGGAGTCACCTAGTGCAG | 8070 fluorescence intensity (a.u.)
TAAGTTTTCATTCGACACATTCTCAGTTACCTCTTCGAAACGGAGTCACCTAGTGCAG | 10300 fluorescence intensity (a.u.)
GAGCTTTTCAAAGTGGGTATTCTTATATATCACCGGTCTTCGGAGTCACCTAGTGCAG | 8030 fluorescence intensity (a.u.)
CACTGTGTGTGATCTTTTGGTCCTGCCTTCCTGTTGTACCCGGAGTCACCTAGTGCAG | 9920 fluorescence intensity (a.u.)
CTTTCTTATTGACTATTTTATTATTTGAGGTCATTTAGGGCGGAGTCACCTAGTGCAG | 9310 fluorescence intensity (a.u.)
CAGAATCTAGTGCATGCCCTCACTTCATTCATCGCAATTTCGGAGTCACCTAGTGCAG | 8040 fluorescence intensity (a.u.)
CATCGCTGACTTCTCTATTGCTCATTGTTGTTGTGTTGTTCGGAGTCACCTAGTGCAG | 13300 fluorescence intensity (a.u.)
CTACAGTGTTCTGGTCAAATCTGAGCTGTTTTTCTTTGATCGGAGTCACCTAGTGCAG | 11400 fluorescence intensity (a.u.)
TTCCGGCCGCCTCCTAGGGTTTCGCCCGCGCTCCGCCACCCGGAGTCACCTAGTGCAG | 8340 fluorescence intensity (a.u.)
GCTCCTGCTTTCCCGAGTCCCTGCAAACCCGACACCATCGCGGAGTCACCTAGTGCAG | 10600 fluorescence intensity (a.u.)
TTGGGCCGTGCAATCTAACCCGTACTCTTTCTGTATCATCCGGAGTCACCTAGTGCAG | 11600 fluorescence intensity (a.u.)

Fetched one by one from the entries so far:
Sequence | binding signal
ACGGTCCACCACCACCAGATATGCCGCCGCCCACCGCCCTCGGAGTCACCTAGTGCAG | 10500 fluorescence intensity (a.u.)
TTCCGGCCGCCTCCTAGGGTTTCGCCCGCGCTCCGCCACCCGGAGTCACCTAGTGCAG | 8340 fluorescence intensity (a.u.)
TTGGGCCGTGCAATCTAACCCGTACTCTTTCTGTATCATCCGGAGTCACCTAGTGCAG | 11600 fluorescence intensity (a.u.)

The results go on:

Sequence | binding signal
GGCTTGCTGGGGTGCGTCAATGAGGTGGTGGCGGCGGTGGCGGAGTCACCTAGTGCAG | 12000 fluorescence intensity (a.u.)
ACTCCGCTTCTCCACCGACGCCACCACTGTCCTTCTCGCTCGGAGTCACCTAGTGCAG | 12100 fluorescence intensity (a.u.)
ATTTTCACCGTGTCTACATCATTTCTTTACAAAAGCATTTCGGAGTCACCTAGTGCAG | 10500 fluorescence intensity (a.u.)
GCCACTTATCCGCTAAGCACGTTATATGGCGGTGCACTGTCGGAGTCACCTAGTGCAG | 8660 fluorescence intensity (a.u.)
GTACTACTCAGGTCACTATAACCACTAGTCTACATGTCCTCGGAGTCACCTAGTGCAG | 9000 fluorescence intensity (a.u.)
GTGGGGCCCACCTGTCGGGGCGGTTGATGGGCTCTTCTAGCGGAGTCACCTAGTGCAG | 8370 fluorescence intensity (a.u.)
TATAGGGACGGAGCGAGTATTTTGCAACTCACTTCTCCGACGGAGTCACCTAGTGCAG | 8100 fluorescence intensity (a.u.)
TCTATTTTATTTGGGTGGGGATAGTTTTAGTGGGAATTTGCGGAGTCACCTAGTGCAG | 24200 fluorescence intensity (a.u.)
CTAAATTAATGGTCGCTTTGACTTTTTTTATGTAATGTTTCGGAGTCACCTAGTGCAG | 14700 fluorescence intensity (a.u.)
AGAGAGGGTGTTGTGAATTGGGAATTTCGGGATTATTGCTCGGAGTCACCTAGTGCAG | 11800 fluorescence intensity (a.u.)
CGACTTGTCAGCGGCCTCCATCGCGTGTGCCTTTCTCAGTCGGAGTCACCTAGTGCAG | 9480 fluorescence intensity (a.u.)
ACTTTCCGCGTCTTCTTCGTCTTCGTCTTCGTCCTCCTCCCGGAGTCACCTAGTGCAG | 12100 fluorescence intensity (a.u.)
AACGGTCAAACATGTGCTAAAAAGTCAACGGTGTCAAATACGGAGTCACCTAGTGCAG | 18600 fluorescence intensity (a.u.)
TTTACGGTTTGGGGAATTGAGAGTCGTACTTAAGGCTTATCGGAGTCACCTAGTGCAG | 9370 fluorescence intensity (a.u.)
CTCTCTCTTCGCCCGTGACTCCATCCCCTCCCTAGCCGCTCGGAGTCACCTAGTGCAG | 8190 fluorescence intensity (a.u.)
GCAAACCCACGTCTACCCAGCCTCACTCTACCCAACACCCCGGAGTCACCTAGTGCAG | 8460 fluorescence intensity (a.u.)
ACTGTTGACCAGCAGTGCTGGGTAATGATTTTCCCGGATGCGGAGTCACCTAGTGCAG | 10300 fluorescence intensity (a.u.)
TGAAATGAAATGAAATGAAATGGGGTTGGGTAATTAAGCTCGGAGTCACCTAGTGCAG | 9610 fluorescence intensity (a.u.)
GCCGCTTGGGCCGCTCTATGCTGCTCACCGTCTGTCGTAGCGGAGTCACCTAGTGCAG | 8740 fluorescence intensity (a.u.)
CTCTCTATTTGTTGACCAGTCTGATTTTCGTCCCTAACCGCGGAGTCACCTAGTGCAG | 9360 fluorescence intensity (a.u.)
TTACGATTTCGTCTAACCGATCTATATTTTTGCTATTTTCCGGAGTCACCTAGTGCAG | 10900 fluorescence intensity (a.u.)
